Our source for the binding values is PMC7933254.

Protein sequences, listed by entry. Tags and fused reporters are not part of them. Lines headed by an entry give the natural chain unless they say otherwise; changes in a name come on top.
UniProt Q9HBA0: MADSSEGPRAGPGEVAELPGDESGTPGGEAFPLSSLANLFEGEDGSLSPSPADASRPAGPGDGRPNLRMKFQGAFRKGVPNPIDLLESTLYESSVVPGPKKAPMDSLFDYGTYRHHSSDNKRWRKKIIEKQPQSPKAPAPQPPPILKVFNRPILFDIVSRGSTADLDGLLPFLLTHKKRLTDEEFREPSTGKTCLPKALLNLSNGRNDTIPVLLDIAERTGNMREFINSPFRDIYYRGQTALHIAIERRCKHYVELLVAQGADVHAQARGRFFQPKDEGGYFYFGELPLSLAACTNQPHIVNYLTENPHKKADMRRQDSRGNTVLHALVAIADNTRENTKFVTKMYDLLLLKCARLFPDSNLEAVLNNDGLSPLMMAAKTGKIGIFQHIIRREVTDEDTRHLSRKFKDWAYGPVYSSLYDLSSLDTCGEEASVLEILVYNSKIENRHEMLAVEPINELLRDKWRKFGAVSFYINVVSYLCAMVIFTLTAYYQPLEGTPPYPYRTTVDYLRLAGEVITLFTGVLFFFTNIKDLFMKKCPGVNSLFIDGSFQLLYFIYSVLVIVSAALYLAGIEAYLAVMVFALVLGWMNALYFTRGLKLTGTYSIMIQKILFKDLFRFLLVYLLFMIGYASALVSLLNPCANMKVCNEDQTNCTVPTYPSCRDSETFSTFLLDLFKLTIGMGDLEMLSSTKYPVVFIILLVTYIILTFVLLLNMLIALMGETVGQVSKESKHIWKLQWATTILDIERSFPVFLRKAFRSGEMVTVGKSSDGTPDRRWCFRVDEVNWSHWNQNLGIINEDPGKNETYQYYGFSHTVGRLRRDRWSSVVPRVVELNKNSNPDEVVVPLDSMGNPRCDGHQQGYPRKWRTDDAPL

No constants are given. Whether binding was seen depends on the method and setting. Binding seen in cells or lysates may run through a third protein. Binding can be weak; no strength is given.

The assay concerns the target TRPV4-FLAG (wild type), expressed in MN-1 cells (human) (UniProt Q9HBA0). As to the kind of experiment: co-IP; co-immunoprecipitations shown only in supplementary figures (2b, 2e, 3f, 3g); transfected cells, cell line and antibodies not told in the main text.

Consider “GFP-tagged neuropathy mutant TRPV4 (from UniProt Q9HBA0)”, for which the binding entry is given as “binds”.
